Test results reported in patent EP4679096A1, “BIOMARKERS AND METHOD FOR ESTIMATING BRAIN NEURODEGENERATIVE CONDITION” (SHIMADZU CORPORATION, priority 2023, dated 2024).

Assay: Ng peptides in plasma by affinity purification (anti-Ng antibody beads) and MALDI-TOF MS; comparison of CN, MCI, AD_Aβ+ and nonAD_Aβ- groups
Design: species or system human
Excerpt: At the National Center for Geriatrics and Gerontology, 161 plasma samples and clinical diagnostic information such as amyloid PET findings, FDG-PET findings, MRI findings and MMSE findings (Mini Mental State Examination) were acquired.
The subject is a case diagnosed with normal cognitive function (CN), mild cognitive impairment (MCI), Alzheimer's disease (AD), and dementia other than Alzheimer's disease (nonAD). A group of AD and nonAD was defined as a group of dementia.
PiB-PET images of the brains of the subjects were acquired in order to determine whether AB accumulation in the brain was positive or negative. A subject in which the accumulation amount of PiB in the cerebral cortex was larger than or equal to the accumulation amount of PiB in the non-specific white matter by visual interpretation evaluation by a nuclear medicine specialist was determined to be positive. A subject who had only non-specific accumulation in the white matter and hardly accumulated in the cortex was determined to be negative. The PiB accumulation average value (SUVR: Standard Uptake Value Ratio) quantified the PiB accumulation in the cortex, and the accumulation ratio of the cerebrum was determined on the basis of the cerebellum. AD cases confirmed to be AB-positive in amyloid PET were defined as AD_Aβ+ (N = 39), and nonAD cases confirmed to be AB-negative in amyloid PET were defined as nonAD_Aβ- (N = 41).
DMSO (dimethyl sulfoxide) was mixed with a first buffer solution (0.1% n-undecyl-8-D-maltoside (UDM), 800 mM GlcNAc, 100 mM Tris-HCl, 300 mM NaCl; pH 7.4) containing a surfactant to prepare DMSO at a DMSO concentration of 20 (v/v)%. Subsequently, Ng45-75 (SIL-Ng45-75) and Ng24-75 (SIL-Ng24-75) labeled with a stable isotope as an internal standard were mixed with the first buffer so as to be 50 pM, thereby preparing an internal standard containing buffer. Subsequently, 200 µL of human plasma was mixed with 200 µL of an internal standard containing buffer, and the mixture was allowed to stand on ice for 5 to 60 minutes. Thus, a plasma sample was prepared. In SIL-Ng45-75 and SIL-Ng24-75, the carbon atoms and nitrogen atoms of some amino acids of Pro, Val, and Ala are substituted with ^13C and ^15N, respectively.
Clone NG2 (manufactured by BioLegend, Inc.) of an anti-Ng antibody (IgG1) having 52-63 residues of human neurogranin (Ng) as an epitope was prepared. To 100 µg of an anti-Ng antibody, 5.5 mg of magnetic beads (Dynabeads M-270 Epoxy) were added in an immobilization buffer (0.1 M phosphate buffer containing 1.5 M ammonium sulfate; pH 7.4) at 37°C for 16 to 24 hours. Thus, antibody beads as an antibody-immobilizing carrier were produced.
Plasma samples were mixed with the antibody beads and incubated at 4°C for 1 hour. The antibody beads were then washed once with 100 µL of the first wash buffer (0.05% UDM, 50 mM Tris-HCl, 150 mM NaCl; pH7.4) and once with 50 µL of 50 mM ammonium acetate buffer. Thereafter, the antibody beads were brought into contact with the first acidic solution (0.05% UDM, 50 mM glycine buffer; pH 2.8) to elute the Ng peptide into the first acidic solution. Accordingly, a first eluate containing the Ng peptide was obtained.
The first eluate was mixed with neutral buffer (0.1% UDM, 800 mM GlcNAc, 300 mM Tris-HCl, 300 mM NaCl; pH 7.4) to give a purified solution.
Purification solution was mixed with antibody beads and incubated at 4°C for 1 h. The antibody beads were then washed twice with 50 µL of the second washing buffer (0.05% UDM, 50 mM Tris-HCl, 150 mM NaCl; pH 7.4), washed once with 50 µL of 50 mM ammonium acetate buffer, and washed once with 30 µL of water. Thereafter, the antibody beads were brought into contact with a second acidic solution (70% (v/v) acetonitrile aqueous solution containing 5 mM hydrochloric acid and 0.1 mM methionine, 50 nM BSA) to elute the Ng peptide into the second acidic solution. Accordingly, a second eluate containing the Ng peptide was obtained. […]

[1] = ratio of medians (times CN), Experimental Example 1 correction
[2] = result in words, plasma corrected NI

Ng7-55: neurogranin fragment peptide, No. 26 (NACSKPDDDILDIPLDDPGANAAAAKIQASFRGHMARKKIKSGERGRKG; UniProt Q92686 7-55, looked up, fragment)
Median for each group AD (plasma NI, corrected as in Experimental Example 1, AD_Aβ+ group per text): 0.152
Median for each group MCI (plasma NI, corrected as in Experimental Example 1, MCI group): 0.126
Median for each group CN (plasma NI, corrected with sum of 10 monovalent + 2 divalent Ng peptide ions (Ng50-75, Ng45-75 not corrected), CN group): 0.137
Difference in median for each group CN vs MCI [1]: 0.92
Difference in median for each group CN vs nonAD_Aβ - [1]: 1.02
median values in the AD_Aβ+ group than in the CN group [2]: higher
median values in the nonAD_Aβ- group than in the CN group [2]: higher
